Measured data: PubChem BioAssay AID1259254 (NCATS, 2017)
The whole screen tested about 59,000 reagents; this is a part drawn at random. Of all reagents, about 1,550 (2.6%) got an active call. 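G2 share is only a proxy for re-replication; each gene was hit by three separate siRNAs, and active genes were retested.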 Reagents against one gene are numbered here. Not all columns of the deposit are shown. Not given: the amount of reagent.

Aim: 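Finding genes that stop cells copying their DNA twice in one cycle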 (primary screen)
Cell system: human HCT116 colorectal cancer cells
Reagent: single siRNA against human genes
Duration: 3 days
Read-out: 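Imaged Hoechst DNA stain sorts each cell into a cycle phase by DNA amount; per plate, G2 fraction set to 0% for non-targeting and 100% for GMNN siRNA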
Reading the numbers: G2 robust z-score: higher = more G2 cells, more excess DNA replication
Call rule: 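An siRNA counts as active if its G2 robust z-score lies at least 5 MADs above the screen median; here such calls match roughly 38% of GMNN control or more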

AP3M1 (adaptor related protein complex 3 subunit mu 1) #1 | G2 robust z-score = 0.468; Outcome = inactive
AP3M1 (adaptor related protein complex 3 subunit mu 1) #2 | G2 robust z-score = -1.01; Outcome = inactive
AP3M1 (adaptor related protein complex 3 subunit mu 1) #3 | G2 robust z-score = 0.464; Outcome = inactive
IDH1 (isocitrate dehydrogenase (NADP(+)) 1) #1 | G2 robust z-score = 1.82; Outcome = inactive
IDH1 (isocitrate dehydrogenase (NADP(+)) 1) #2 | G2 robust z-score = -0.256; Outcome = inactive
IDH1 (isocitrate dehydrogenase (NADP(+)) 1) #3 | G2 robust z-score = -0.83; Outcome = inactive

Single entries from the list.
Entry for IDH1 (isocitrate dehydrogenase (NADP(+)) 1) #1 under “G2 robust z-score”: 1.82
AP3M1 (adaptor related protein complex 3 subunit mu 1) #2, Outcome: inactive

Further entries follow.
HHIP-AS1 (HHIP antisense RNA 1) #1 | G2 robust z-score = 2.2; Outcome = inactive
HHIP-AS1 (HHIP antisense RNA 1) #2 | G2 robust z-score = 2.44; Outcome = inactive
HHIP-AS1 (HHIP antisense RNA 1) #3 | G2 robust z-score = -0.511; Outcome = inactive
CXXC4 (CXXC finger protein 4) #1 | G2 robust z-score = -0.0257; Outcome = inactive
CXXC4 (CXXC finger protein 4) #2 | G2 robust z-score = -0.245; Outcome = inactive
CXXC4 (CXXC finger protein 4) #3 | G2 robust z-score = -0.388; Outcome = inactive
